Assay results taken from paper PMC8273494.

The chains behind the UniProt entries cited, without tags or fusion partners. Where a name states a change or a piece, a line headed by the entry shows the natural chain unless it says otherwise.
UniProt P09651: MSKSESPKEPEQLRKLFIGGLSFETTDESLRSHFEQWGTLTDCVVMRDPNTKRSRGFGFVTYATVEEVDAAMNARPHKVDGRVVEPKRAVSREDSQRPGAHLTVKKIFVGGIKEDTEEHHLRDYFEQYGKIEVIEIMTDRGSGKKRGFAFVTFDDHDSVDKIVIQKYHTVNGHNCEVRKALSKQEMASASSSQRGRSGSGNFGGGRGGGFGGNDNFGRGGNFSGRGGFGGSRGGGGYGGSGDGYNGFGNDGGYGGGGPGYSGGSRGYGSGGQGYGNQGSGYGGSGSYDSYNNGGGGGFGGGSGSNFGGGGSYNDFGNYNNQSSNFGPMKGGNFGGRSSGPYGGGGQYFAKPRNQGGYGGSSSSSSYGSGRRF
UniProt P22626: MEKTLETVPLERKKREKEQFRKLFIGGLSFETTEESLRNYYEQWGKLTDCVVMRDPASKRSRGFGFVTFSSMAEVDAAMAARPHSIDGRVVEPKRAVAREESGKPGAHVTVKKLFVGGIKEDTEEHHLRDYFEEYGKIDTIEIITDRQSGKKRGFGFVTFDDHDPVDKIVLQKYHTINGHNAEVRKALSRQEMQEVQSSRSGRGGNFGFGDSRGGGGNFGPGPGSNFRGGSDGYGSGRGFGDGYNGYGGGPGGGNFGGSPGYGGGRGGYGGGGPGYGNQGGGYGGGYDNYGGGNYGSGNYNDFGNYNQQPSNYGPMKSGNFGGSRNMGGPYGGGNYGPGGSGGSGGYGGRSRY
UniProt P15924: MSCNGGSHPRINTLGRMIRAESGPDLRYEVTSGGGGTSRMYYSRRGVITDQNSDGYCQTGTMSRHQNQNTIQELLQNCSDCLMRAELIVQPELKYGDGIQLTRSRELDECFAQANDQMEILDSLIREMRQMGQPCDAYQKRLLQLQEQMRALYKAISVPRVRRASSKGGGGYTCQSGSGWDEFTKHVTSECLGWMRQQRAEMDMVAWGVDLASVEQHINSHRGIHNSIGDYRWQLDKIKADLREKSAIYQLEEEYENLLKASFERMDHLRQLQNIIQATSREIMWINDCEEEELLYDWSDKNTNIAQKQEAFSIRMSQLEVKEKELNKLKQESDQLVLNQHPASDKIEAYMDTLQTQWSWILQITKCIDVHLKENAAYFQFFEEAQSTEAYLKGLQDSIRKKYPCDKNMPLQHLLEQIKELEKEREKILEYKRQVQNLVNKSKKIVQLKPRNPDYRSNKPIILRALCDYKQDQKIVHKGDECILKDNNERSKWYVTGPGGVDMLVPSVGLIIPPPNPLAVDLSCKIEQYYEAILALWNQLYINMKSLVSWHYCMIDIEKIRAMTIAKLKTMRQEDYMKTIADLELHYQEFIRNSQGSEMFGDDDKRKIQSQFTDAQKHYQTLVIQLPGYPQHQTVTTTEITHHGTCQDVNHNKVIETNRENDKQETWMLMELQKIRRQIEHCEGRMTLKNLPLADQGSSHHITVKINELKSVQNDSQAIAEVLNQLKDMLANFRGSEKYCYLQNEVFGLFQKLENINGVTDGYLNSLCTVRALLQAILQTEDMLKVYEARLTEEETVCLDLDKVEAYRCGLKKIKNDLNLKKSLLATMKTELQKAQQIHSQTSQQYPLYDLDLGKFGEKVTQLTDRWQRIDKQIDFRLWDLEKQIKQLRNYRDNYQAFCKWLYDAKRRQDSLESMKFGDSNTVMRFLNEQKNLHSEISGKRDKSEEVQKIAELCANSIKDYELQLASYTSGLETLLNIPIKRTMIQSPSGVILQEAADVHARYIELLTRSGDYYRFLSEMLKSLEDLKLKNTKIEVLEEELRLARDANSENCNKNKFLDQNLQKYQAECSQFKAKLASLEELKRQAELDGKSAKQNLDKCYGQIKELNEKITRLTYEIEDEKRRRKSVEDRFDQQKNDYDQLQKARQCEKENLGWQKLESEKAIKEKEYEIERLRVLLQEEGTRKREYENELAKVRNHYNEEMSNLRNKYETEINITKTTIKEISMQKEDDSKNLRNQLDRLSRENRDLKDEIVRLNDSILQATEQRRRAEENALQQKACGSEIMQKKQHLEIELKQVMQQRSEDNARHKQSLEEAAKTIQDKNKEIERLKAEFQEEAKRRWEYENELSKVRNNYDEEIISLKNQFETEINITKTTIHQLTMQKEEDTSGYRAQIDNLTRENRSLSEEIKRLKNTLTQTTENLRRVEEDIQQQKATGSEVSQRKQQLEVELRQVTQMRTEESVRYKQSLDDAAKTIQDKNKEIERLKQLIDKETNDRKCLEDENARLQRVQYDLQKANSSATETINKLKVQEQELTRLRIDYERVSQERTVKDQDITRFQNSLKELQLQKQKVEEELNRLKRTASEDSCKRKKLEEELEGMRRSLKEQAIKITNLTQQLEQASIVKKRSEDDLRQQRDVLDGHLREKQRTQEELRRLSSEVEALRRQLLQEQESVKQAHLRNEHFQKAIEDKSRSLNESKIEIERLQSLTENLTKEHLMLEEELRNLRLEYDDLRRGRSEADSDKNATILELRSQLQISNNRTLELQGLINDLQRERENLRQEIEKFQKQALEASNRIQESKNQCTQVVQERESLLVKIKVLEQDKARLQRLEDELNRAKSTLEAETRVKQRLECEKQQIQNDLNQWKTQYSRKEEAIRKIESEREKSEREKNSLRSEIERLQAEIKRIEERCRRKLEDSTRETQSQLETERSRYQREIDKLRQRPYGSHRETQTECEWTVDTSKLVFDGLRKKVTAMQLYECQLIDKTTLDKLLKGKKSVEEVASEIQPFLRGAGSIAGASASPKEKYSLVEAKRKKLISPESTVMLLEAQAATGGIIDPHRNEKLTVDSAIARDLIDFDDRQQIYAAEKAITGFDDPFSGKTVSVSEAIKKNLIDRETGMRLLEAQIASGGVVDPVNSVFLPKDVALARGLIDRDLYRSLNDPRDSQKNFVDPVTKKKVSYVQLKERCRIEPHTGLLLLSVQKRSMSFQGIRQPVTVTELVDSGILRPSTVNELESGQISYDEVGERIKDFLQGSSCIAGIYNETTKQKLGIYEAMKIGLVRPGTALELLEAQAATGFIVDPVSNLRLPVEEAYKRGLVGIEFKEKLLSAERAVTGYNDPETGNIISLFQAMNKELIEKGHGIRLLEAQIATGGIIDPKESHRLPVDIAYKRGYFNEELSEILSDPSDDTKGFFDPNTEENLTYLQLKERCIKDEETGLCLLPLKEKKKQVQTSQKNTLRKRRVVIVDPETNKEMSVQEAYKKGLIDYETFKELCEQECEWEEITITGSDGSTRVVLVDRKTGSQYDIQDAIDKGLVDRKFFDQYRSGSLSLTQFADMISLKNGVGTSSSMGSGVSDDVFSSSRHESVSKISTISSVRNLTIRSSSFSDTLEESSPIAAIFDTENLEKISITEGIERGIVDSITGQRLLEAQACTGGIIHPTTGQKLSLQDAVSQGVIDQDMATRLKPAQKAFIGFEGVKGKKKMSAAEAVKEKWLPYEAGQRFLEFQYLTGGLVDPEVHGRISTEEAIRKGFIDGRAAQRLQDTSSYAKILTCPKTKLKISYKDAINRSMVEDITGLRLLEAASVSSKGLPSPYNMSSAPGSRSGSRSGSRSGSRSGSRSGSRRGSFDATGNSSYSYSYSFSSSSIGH
UniProt Q00839, whole entry: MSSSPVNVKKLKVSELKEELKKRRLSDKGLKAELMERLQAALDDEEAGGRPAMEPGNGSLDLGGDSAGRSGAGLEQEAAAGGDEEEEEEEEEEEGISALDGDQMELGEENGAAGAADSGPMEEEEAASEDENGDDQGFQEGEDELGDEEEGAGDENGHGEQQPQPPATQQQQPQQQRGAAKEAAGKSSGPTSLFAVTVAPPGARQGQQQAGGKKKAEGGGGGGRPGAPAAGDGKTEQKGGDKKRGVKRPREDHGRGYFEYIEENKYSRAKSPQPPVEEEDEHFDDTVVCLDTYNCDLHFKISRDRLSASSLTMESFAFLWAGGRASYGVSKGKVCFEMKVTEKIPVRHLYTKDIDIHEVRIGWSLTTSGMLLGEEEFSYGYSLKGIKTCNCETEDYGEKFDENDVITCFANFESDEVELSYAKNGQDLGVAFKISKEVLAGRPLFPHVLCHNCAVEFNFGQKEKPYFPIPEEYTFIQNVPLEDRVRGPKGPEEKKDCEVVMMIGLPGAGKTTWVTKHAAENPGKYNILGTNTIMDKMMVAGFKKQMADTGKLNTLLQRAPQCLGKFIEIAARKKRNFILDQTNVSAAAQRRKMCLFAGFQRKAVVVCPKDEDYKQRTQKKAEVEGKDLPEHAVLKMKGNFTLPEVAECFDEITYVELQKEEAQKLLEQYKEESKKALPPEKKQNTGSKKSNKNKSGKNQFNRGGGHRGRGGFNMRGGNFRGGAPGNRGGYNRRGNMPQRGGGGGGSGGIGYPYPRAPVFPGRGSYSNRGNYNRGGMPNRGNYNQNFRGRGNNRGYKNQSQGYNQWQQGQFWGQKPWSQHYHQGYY

What was measured:
Test in all cases: BLI pull-down + MS
[1] = biological target: hnRNP A1 (A375 nuclear extract) (UniProt P09651); conditions: PBS blank 25 PSMs, BLI: biotinylated aptamer on SA sensors in A375 nuclear protein extract, formic acid elution
[2] = biological target: hnRNP A2/B1 (A375 nuclear extract) (UniProt P22626); conditions: PBS blank 24 PSMs, BLI: biotinylated aptamer on SA sensors in A375 nuclear protein extract, formic acid elution
[3] = biological target: Desmoplakin (A375 nuclear extract) (UniProt P15924); conditions: BLI: biotinylated aptamer on SA sensors in A375 nuclear protein extract, formic acid elution, protein in an extract
[4] = biological target: T1, hnRNP D0 (A375 nuclear extract) (UniProt Q14103); conditions: PBS blank 8 PSMs, BLI: biotinylated aptamer on SA sensors in A375 nuclear protein extract, formic acid elution, protein in an extract
T1 sequence (looked up, limits assumed): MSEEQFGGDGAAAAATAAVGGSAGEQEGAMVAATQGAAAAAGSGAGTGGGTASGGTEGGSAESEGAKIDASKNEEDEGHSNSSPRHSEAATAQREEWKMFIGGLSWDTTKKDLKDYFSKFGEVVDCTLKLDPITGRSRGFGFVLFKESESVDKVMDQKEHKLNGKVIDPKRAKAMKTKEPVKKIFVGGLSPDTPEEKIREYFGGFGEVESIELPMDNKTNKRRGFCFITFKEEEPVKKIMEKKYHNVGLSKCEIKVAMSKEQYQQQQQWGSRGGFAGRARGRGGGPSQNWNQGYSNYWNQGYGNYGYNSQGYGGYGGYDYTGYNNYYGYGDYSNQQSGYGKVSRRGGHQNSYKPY

[5] = biological target: hnRNP U (A375 nuclear extract) (UniProt Q00839); conditions: PBS blank none, BLI: biotinylated aptamer on SA sensors in A375 nuclear protein extract, formic acid elution, protein in an extract
[6] = protein in an …, single-stranded DNA
[7] = phosphorothioate 3' of nt 1,2,3,9,10,11,12,13,14,28,29,30 (stereorandom), protein in an extract, label: 5'-biotin, synthetic backbone

Sequence	binding signal [1, 6] [PSMs]	binding signal [2, 6] [PSMs]	binding signal ([3]; below PBS blank (42 PSMs), single-stranded DNA) [PSMs]	binding signal ([4]; single-stranded DNA) [PSMs]	binding signal ([5]; single-stranded DNA) [PSMs]	binding signal [1, 7] [PSMs]	binding signal [2, 7] [PSMs]	binding signal ([3]; PBS blank 42 PSMs, phosphorothioate 3' of nt 1,2,3,9,10,11,12,13,14,28,29,30 (stereorandom), label: 5'-biotin, synthetic backbone) [PSMs]	binding signal ([4]; NC 55 PSMs, phosphorothioate 3' of nt 1,2,3,9,10,11,12,13,14,28,29,30 (stereorandom), label: 5'-biotin, synthetic backbone) [PSMs]	binding signal ([5]; NC 79 PSMs, phosphorothioate 3' of nt 1,2,3,9,10,11,12,13,14,28,29,30 (stereorandom), label: 5'-biotin, synthetic backbone) [PSMs]
TGGTGCGGTGTGGGTCGAGTGGTATGGTATG [NC]	111	63	28	55	79	–	–	–	–	–
TGTGGCGAGGTAGGTGGGGTGTGTGTGTATC [WW-24]	–	–	–	–	–	281	229	85	39	81

The exact form of at least one protein or probe is not confirmed. At least one result comes from cells or an extract, where the contact may be indirect. Whether high values mean tight binding is not given here for every scale. For some of these results: Tags and fusion partners may be left off the protein sequences shown.
